Laboratory results published in paper doi:10.1101/2024.02.01.578400.
No constants are given. Whether binding was seen depends on the method and setting. For some assays here: Binding seen in cells or lysates may run through a third protein. Some binding calls cover weakened binding; strength is not graded here. Sequences can lack the tags named with a protein. Each block holds one binder with its values, some of them ahead of it.

Assays:
[1] = target: ATHB2 (full-length class II HD-ZIP transcription factor), GAL4 fusion (Arabidopsis thaliana) (UniProt Q05466); experiment: two-hybrid
[2] = target: ATHB2 fused to eGFP or mCherry, expressed in Nicotiana benthamiana leaves (Arabidopsis thaliana) (UniProt Q05466); experiment: FRET or BRET

binding [1]: binds
B1: ATHB2 (full-length class II HD-ZIP transcription factor), GAL4 fusion (protein, UniProt Q05466 1-284)
chain: MMFEKDDLGLSLGLNFPKKQINLKSNPSVSVTPSSSSFGLFRRSSWNESFTSSVPNSDSSQKETRTFIRGIDVNRPPSTAEYGDEDAGVSSPNSTVSSSTGKRSEREEDTDPQGSRGISDDEDGDNSRKKLRLSKDQSAILEETFKDHSTLNPKQKQALAKQLGLRARQVEVWFQNRRARTKLKQTEVDCEFLRRCCENLTEENRRLQKEVTELRALKLSPQFYMHMSPPTTLTMCPSCEHVSVPPPQPQAATSAHHRSLPVNAWAPATRISHGLTFDALRPRS

binding [2]: binds
B2: ATHB2 fused to eGFP or mCherry, expressed in Nicotiana benthamiana leaves (protein, UniProt Q05466 1-284)
chain: B1 chain
